Most of the highest values are listed elsewhere, so they are rarer here than in the full data.

This test deals with SARS-CoV-2. As to the kind of experiment: Inhibition of cell viability relative to arbidol control (inhibition index > 1 indicates higher activity) measured by fluorescence (OD590nm) in Vero E6 cells infected with SARS-CoV-2 (strain BavPat1) at MOI 0.002 after 72hrs. Type of test: functional, Chlorocebus sabaeus, Vero C1008.
In turn, `Br.CN1[C@@H]2CC[C@H]1C[C@@H](OC(=O)C(O)c1ccccc1)C2` (some centres not stated) [HOMATROPINE HYDROBROMIDE] gave an Inhibition index of 0.04131.
In the case of `CCC(C)C(C(=O)OCC[N+](C)(CC)CC)c1ccccc1.[Br-]` (configuration not stated) [VALETHAMATE BROMIDE] it was 0.2742.
